# Reference: the supplement of paper PMC12823440, “Inhibitors supercharge kinase turnover through native proteolytic circuits” (Nature, 2025)
# Protein sequences, listed by entry. Tags and fused reporters are not part of them. Lines headed by an entry give the natural chain unless they say otherwise; changes in a name come on top.
# UniProt Q01974, whole entry: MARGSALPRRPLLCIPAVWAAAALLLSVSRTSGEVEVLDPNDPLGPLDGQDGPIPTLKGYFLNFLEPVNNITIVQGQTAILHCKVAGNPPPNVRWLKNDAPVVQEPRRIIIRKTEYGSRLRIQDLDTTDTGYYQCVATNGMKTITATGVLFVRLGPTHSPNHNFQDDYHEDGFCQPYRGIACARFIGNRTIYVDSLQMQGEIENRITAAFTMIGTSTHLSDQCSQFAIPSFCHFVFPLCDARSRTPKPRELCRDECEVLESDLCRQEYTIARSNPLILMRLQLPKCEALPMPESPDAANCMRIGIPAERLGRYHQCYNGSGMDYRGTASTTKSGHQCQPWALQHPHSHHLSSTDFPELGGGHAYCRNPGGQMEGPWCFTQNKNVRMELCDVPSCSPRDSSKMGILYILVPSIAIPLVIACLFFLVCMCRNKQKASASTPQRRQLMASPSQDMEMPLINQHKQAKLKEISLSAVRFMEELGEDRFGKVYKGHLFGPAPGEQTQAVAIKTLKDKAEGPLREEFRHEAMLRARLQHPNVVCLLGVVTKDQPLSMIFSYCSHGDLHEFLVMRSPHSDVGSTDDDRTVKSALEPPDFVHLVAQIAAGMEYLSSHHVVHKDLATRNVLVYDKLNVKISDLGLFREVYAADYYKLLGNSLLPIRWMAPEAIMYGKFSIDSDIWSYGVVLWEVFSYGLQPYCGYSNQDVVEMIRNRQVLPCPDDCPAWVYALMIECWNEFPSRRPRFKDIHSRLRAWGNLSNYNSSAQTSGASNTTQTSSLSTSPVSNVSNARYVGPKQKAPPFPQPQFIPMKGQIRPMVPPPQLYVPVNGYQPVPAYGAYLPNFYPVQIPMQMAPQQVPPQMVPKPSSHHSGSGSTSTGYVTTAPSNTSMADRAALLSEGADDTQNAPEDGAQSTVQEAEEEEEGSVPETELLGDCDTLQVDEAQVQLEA
# UniProt Q15418, whole entry: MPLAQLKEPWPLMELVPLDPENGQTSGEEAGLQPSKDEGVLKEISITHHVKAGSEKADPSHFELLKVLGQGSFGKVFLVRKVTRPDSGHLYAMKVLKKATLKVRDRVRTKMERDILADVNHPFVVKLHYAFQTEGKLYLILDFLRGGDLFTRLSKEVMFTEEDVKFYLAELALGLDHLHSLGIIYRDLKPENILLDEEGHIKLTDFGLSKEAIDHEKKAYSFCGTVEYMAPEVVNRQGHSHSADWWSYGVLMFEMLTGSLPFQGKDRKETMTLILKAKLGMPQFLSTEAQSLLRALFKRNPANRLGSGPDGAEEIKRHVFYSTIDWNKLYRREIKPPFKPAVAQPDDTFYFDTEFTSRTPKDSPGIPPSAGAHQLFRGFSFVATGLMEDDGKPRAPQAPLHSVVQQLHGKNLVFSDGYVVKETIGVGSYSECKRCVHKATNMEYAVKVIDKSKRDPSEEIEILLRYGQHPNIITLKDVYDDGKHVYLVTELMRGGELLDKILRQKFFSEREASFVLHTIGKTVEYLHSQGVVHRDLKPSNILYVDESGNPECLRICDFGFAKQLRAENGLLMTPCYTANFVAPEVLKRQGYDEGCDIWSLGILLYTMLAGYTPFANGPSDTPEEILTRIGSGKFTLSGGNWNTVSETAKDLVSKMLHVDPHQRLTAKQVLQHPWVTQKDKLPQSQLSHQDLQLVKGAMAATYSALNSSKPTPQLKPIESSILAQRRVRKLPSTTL
# UniProt Q9Y6E0: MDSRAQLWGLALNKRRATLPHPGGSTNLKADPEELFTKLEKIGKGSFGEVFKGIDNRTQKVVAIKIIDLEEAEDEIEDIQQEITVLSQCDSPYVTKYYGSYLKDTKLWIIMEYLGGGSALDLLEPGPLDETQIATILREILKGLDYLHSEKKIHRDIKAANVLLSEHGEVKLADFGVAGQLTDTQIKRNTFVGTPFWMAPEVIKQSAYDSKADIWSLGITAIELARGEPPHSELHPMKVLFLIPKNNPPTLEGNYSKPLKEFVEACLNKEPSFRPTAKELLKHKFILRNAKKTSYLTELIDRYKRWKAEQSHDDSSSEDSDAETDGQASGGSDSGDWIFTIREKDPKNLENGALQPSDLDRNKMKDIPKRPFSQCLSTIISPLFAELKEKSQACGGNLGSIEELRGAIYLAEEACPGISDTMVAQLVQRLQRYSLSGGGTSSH
# UniProt Q15208: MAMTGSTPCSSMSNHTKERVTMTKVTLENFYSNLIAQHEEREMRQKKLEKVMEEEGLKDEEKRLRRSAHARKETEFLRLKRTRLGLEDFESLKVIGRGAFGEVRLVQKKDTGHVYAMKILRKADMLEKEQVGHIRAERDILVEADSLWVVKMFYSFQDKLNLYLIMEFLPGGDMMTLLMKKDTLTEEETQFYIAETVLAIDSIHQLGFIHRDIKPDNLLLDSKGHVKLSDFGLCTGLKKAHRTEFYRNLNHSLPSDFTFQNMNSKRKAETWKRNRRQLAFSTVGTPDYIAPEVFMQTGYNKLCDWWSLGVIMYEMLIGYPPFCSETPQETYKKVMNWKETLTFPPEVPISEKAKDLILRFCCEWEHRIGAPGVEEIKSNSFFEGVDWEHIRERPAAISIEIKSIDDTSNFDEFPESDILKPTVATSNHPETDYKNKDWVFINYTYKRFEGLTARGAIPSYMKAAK
# UniProt P42680: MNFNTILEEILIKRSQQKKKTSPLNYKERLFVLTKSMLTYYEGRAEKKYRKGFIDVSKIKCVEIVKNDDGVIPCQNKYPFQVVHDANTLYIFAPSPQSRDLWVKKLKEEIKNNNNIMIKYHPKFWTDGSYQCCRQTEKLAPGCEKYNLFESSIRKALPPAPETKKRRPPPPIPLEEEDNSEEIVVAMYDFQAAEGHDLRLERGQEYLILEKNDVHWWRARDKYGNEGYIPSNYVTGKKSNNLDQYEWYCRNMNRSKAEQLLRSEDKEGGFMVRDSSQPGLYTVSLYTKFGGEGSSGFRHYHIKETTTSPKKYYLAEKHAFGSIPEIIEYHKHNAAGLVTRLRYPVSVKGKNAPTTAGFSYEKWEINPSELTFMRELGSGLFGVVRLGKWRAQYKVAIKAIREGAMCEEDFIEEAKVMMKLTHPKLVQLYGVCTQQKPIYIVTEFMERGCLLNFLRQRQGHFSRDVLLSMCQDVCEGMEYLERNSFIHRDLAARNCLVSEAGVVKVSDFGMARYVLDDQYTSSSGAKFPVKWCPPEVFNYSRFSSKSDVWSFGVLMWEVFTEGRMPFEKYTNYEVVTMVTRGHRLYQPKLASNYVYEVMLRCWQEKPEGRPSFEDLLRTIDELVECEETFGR
# UniProt P29597: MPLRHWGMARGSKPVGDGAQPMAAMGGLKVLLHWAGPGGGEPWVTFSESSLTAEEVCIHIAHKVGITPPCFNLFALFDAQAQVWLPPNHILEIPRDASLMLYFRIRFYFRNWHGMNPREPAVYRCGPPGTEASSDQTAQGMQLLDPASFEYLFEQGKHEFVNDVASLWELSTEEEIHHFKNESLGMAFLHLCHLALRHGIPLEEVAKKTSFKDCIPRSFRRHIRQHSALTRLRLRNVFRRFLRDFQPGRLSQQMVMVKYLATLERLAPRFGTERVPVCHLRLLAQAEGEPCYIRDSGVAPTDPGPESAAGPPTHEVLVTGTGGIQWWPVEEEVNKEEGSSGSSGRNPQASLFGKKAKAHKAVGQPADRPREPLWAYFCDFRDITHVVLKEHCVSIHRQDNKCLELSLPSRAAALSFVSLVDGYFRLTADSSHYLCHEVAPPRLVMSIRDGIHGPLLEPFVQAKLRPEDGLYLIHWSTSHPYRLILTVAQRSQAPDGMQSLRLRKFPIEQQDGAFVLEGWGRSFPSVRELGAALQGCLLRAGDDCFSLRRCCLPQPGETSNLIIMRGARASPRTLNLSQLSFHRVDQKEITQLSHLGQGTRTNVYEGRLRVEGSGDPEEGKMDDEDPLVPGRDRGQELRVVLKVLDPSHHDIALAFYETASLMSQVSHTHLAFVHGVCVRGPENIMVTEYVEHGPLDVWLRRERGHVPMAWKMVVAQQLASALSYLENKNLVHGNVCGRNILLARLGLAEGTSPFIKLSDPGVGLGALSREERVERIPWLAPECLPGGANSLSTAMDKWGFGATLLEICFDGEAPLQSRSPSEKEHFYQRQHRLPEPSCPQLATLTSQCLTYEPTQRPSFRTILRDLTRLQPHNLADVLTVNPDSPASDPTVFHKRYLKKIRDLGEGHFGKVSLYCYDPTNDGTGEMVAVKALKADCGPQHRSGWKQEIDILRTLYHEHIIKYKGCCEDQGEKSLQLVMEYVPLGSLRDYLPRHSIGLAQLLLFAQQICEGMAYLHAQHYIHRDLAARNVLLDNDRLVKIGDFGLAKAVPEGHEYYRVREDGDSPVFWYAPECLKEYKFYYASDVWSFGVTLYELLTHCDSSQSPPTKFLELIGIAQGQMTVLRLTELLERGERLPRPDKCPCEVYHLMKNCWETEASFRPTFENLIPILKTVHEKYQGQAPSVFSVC
# UniProt Q6PHR2: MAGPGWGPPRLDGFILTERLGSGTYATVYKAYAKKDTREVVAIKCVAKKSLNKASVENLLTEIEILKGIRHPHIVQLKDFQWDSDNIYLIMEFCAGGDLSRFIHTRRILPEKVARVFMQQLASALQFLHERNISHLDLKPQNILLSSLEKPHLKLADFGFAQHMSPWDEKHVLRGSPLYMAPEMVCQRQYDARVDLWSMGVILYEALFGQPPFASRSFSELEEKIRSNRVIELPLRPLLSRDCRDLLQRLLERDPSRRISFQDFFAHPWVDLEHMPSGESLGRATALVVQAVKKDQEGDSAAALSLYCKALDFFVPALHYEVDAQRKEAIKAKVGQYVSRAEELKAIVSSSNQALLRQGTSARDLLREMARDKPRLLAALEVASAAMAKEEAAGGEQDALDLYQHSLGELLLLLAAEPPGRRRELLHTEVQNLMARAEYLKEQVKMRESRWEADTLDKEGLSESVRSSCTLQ
# UniProt P43403: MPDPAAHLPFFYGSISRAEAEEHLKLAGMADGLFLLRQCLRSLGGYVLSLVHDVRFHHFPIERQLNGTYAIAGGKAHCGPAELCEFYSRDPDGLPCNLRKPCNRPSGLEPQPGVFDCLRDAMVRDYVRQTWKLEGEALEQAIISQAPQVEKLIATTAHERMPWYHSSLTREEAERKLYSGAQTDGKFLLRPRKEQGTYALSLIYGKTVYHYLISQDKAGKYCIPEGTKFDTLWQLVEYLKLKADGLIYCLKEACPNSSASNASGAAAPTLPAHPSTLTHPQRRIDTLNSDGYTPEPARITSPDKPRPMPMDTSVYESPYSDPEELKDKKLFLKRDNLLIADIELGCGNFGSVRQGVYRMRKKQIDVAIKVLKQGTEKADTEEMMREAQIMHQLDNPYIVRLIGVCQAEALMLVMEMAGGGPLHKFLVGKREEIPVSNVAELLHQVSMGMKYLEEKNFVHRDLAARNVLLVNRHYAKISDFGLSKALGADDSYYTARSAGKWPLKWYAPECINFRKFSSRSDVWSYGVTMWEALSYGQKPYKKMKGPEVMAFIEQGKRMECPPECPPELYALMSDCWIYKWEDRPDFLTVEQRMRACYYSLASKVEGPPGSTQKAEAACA
# UniProt P11802: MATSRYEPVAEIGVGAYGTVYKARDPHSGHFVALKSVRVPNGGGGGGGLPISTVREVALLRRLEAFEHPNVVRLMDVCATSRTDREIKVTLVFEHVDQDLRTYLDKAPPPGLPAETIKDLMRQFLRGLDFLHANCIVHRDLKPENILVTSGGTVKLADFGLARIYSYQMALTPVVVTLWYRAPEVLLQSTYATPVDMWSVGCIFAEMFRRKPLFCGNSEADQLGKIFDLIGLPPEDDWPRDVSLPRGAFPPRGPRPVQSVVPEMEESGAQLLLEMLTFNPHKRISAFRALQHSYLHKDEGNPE
# UniProt P50613: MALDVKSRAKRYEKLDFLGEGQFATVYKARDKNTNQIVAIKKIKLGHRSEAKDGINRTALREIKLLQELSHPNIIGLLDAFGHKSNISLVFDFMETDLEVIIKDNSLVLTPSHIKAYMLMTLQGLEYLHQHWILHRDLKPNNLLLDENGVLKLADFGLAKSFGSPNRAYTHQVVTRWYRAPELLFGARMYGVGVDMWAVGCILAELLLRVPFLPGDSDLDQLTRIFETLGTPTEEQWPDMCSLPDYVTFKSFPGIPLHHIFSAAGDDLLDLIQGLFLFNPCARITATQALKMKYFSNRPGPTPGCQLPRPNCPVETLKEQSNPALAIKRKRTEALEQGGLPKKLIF
# UniProt P50750, whole entry: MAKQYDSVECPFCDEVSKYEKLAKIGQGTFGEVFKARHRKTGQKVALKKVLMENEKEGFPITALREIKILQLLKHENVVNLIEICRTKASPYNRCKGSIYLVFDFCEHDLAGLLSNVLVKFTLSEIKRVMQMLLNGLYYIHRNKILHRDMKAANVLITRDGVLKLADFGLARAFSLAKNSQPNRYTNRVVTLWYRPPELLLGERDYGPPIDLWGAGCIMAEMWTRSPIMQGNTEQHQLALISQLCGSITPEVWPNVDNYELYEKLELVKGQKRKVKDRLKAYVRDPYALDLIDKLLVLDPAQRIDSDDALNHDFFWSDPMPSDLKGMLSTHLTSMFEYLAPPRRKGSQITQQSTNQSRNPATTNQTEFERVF
# Counter-ions that a name gives are not always drawn. This is one part of the list. The calls rarely recur for the same compound in another form.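 Kinases, fused to nanoluciferase, were expressed in K562 cells; luminescence was measured every 4 h from 2 to 18 h as percent of control (DMSO = 100%, positive control = 0%). A time point is decreased if signal falls significantly (2 sigma). Hits were called by the authors by a rule that is not shown; the count of time points alone does not decide it.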
# How the values were obtained:
# Conditions in all cases: K562; 2-18 h
# ROR2 = ROR2 (UniProt Q01974); experiment: number of time points (of 5) at which kinase-Nluc abundance scored as decreased, DMSO-normalised (count); higher = more persistent destabilization
# RPS6KA1 = RPS6KA1 (UniProt Q15418); experiment: as above
# SPHK1 = SPHK1 (UniProt Q9NYA1); experiment: as above
# SRC = SRC (UniProt P12931); experiment: as above
# STK24 = STK24 (UniProt Q9Y6E0); experiment: as above
# STK38 = STK38 (UniProt Q15208); experiment: as above
# SYK = SYK (UniProt P43405); experiment: as above
# TEC = TEC (UniProt P42680); experiment: as above
# TYK2 = TYK2 (UniProt P29597); experiment: as above
# ULK3 = ULK3 (UniProt Q6PHR2); experiment: as above
# YES1 = YES1 (UniProt P07947); experiment: as above
# ZAK = ZAK (UniProt Q9NYL2); experiment: as above
# ZAP70 = ZAP70 (UniProt P43403); experiment: as above
# CDK4 = CDK4 (UniProt P11802); experiment: number of time points (of 4; 2 h point missing) at which kinase-Nluc abundance scored as decreased, DMSO-normalised (count); higher = more persistent destabilization
# CDK7 = CDK7 (UniProt P50613); experiment: as above
# CDK9 = CDK9 (UniProt P50750); experiment: as above
Compound,number of time points (ROR2),number of time points (RPS6KA1),number of time points (SPHK1),number of time points (SRC),number of time points (STK24),number of time points (STK38),number of time points (SYK),number of time points (TEC),number of time points (TYK2),number of time points (ULK3),number of time points (YES1),number of time points (ZAK),number of time points (ZAP70),number of time points (CDK4),number of time points (CDK7),number of time points (CDK9)
CS[C@@]1(C(=O)Nc2ccc3[nH]nc(-c4ccc(OC(C)C)nc4)c3c2)CCN(CC(=O)N2CC=C(c3ccc(-c4ncn(C)n4)cc3)CC2)C1 (2.5 µM),0,0,0,0,0,0,0,0,0,0,0,0,0,0,0,0
Cc1nc2c(NCc3cccc(S(C)(=O)=O)c3)nccn2c1-c1ccc(O)c(F)c1 (10 µM),0,0,0,0,0,0,0,0,0,0,0,0,0,0,0,0
Nc1nc(Nc2ccc3c(c2)CC[C@@H](N2CCCC2)CC3)nn1-c1cc2c(nn1)-c1ccccc1CCC2 [Bemcentinib] (2.5 µM),0,0,0,0,0,0,0,0,0,0,0,0,0,0,0,0
CCOc1cc(N2CCC(O)CC2)ccc1Nc1ncc2c(n1)N(C1CCCC1)CCC(=O)N2C (2.5 µM),0,0,0,0,0,0,0,0,0,0,0,0,0,0,0,0
CO/N=C1/C(c2c(O)[nH]c3cc(Cl)c(Cl)cc23)=Nc2ccccc21 (10 µM),0,0,0,0,0,0,0,0,0,0,0,0,0,0,0,0
CC1=C(C#N)C(c2ccc3[nH]nc(C)c3c2)C(C#N)=C(C)N1 (10 µM),0,0,0,0,0,0,0,0,0,0,0,0,0,0,0,0
N#C/C(=C/c1ccc(O)c(O)c1)C(=O)N1CCc2ccccc21 [Tyrphostin AG 528] (10 µM),0,0,0,0,0,0,0,0,0,0,0,0,0,0,0,0
O=C1C=CC2=C3c4cc(O)c(O)cc4CC3(O)COC2=C1O (configuration not stated) [Hematein] (10 µM),0,0,0,0,0,0,0,0,0,0,0,0,0,0,0,0
Nc1nccc(Oc2ccc3c(C(=O)Nc4cccc(C(F)(F)F)c4)cccc3c2)n1 (10 µM),0,0,0,0,0,0,0,2,1,3,0,0,0,0,3,3
COc1cc2nnc(C(N)=O)c(Nc3ccc(C)cc3F)c2cc1N1CCN(CCO)CC1 (2.5 µM),0,0,0,0,0,0,0,0,0,0,0,0,0,0,0,0
CN1CCN(c2ccc(-n3cc(-c4ccncc4OCC4CCNCC4)cn3)cc2)CC1 [MELK-8a (hydrochloride)] (10 µM),0,0,1,0,0,1,1,2,4,4,2,1,0,0,3,1
Cc1cccc(-c2nn3c(c2-c2ccnc4ccc(C(N)=O)cc24)CCC3)n1 [Galunisertib] (10 µM),0,0,0,0,0,0,0,0,0,0,0,0,0,0,0,0
Cc1ccc(NC(=O)N2CCN(c3nc(N)nc4sc(-c5cccnc5)nc34)CC2)cc1 [PI4KIII beta inhibitor 3] (10 µM),0,0,0,0,0,0,0,0,0,0,0,0,0,0,0,0
C=CC(=O)Nc1cccc(Oc2nc(Nc3ccc(N4CCN(C)CC4)cc3OC)ncc2Cl)c1 (10 µM),0,0,0,0,0,0,0,0,0,0,0,0,0,0,0,0
CN(C)CCn1cc2cc(NC(=O)c3cccc(C(F)(F)F)n3)c(C(C)(C)O)cc2n1 (10 µM),0,0,0,0,0,0,0,0,0,0,0,0,0,0,0,0
Fc1ccc(-c2nc3n(c2-c2ccncc2)CCS3)cc1 (10 µM),0,0,0,0,0,0,0,0,0,0,0,0,0,0,0,0
CCOC(=O)c1c(N2CCc3ccc(OC)cc3C2)oc(C=C2C=Nc3ncccc32)c1O (10 µM),0,0,0,0,0,0,0,0,1,0,0,0,0,0,1,2
O=c1c(O)c(-c2ccc(O)c(O)c2)oc2cc(O)c(O)c(O)c12 [Quercetagetin] (10 µM),0,0,0,0,0,0,0,0,0,0,0,0,0,0,0,0
CC(C)(CCCCCC(O)CCCCCC(C)(C)C(=O)O)C(=O)O [Bempedoic acid] (10 µM),0,0,0,0,0,0,0,0,0,0,0,0,0,0,0,0
O=C1CCC(N2C(=O)c3cccc(OCCCCCOc4ccc(CC(=O)Nc5cc(C6CCC6)[nH]n5)cc4)c3C2=O)C(=O)N1 (configuration not stated) [PROTAC CDK9 Degrader-1] (10 µM),0,0,0,0,0,1,0,0,1,0,0,0,0,0,1,0
CC(C)=CCC[C@](C)(O[C@@H]1O[C@H](CO[C@@H]2O[C@H](CO)[C@@H](O)[C@H](O)[C@H]2O)[C@@H](O)[C@H](O)[C@H]1O)[C@H]1CC[C@]2(C)[C@@H]1[C@H](O)C[C@@H]1[C@@]3(C)CC[C@H](O[C@@H]4O[C@H](CO)[C@@H](O)[C@H](O)[C@H]4O[C@@H]4O[C@H](CO)[C@@H](O)[C@H](O)[C@H]4O)C(C)(C)[C@@H]3CC[C@]12C [Ginsenoside Rb1] (10 µM),0,0,0,0,0,0,0,0,0,0,0,0,0,0,0,0
Nc1ccc(O)c(C(=O)O)c1 [5-Aminosalicylic Acid] (10 µM),0,0,0,0,0,0,0,0,0,0,0,0,0,0,0,0
CCCCC(=O)OCC(=O)[C@]1(O)Cc2c(O)c3c(c(O)c2[C@@H](O[C@H]2C[C@H](NC(=O)C(F)(F)F)[C@H](O)[C@H](C)O2)C1)C(=O)c1c(OC)cccc1C3=O [Valrubicin] (10 µM),0,0,0,0,0,0,0,0,0,0,0,0,0,0,1,0
CN1C(=O)N[C@@H](Cc2c[nH]c3c(Cl)cccc23)C1=O [Necrostatin 2 (S enantiomer)] (10 µM),0,0,0,0,0,0,0,0,0,0,0,0,0,0,0,0
Nc1ccc(-c2cccc(C(=O)Nc3cnc4nc(N5CCOCC5)oc4c3)n2)cn1 (10 µM),0,0,0,0,0,0,0,0,0,0,0,0,0,0,0,0
Cc1ncsc1-c1ccc(CNC(=O)[C@@H]2C[C@@H](O)CN2C(=O)[C@@H](NC(=O)COCCOc2ccc(-c3cc(Nc4ccc(OC(F)(F)F)cc4)ncn3)cc2)C(C)(C)C)cc1 (2.5 µM),0,0,0,0,0,1,0,1,3,2,0,1,0,0,3,1
O=c1cc(-c2ccc(O[C@@H]3O[C@H](CO)[C@@H](O)[C@H](O)[C@H]3O)cc2)oc2cc(O)c([C@@H]3O[C@H](CO)[C@@H](O)[C@H](O)[C@H]3O[C@@H]3OC[C@H](O)[C@H](O)[C@H]3O)c(O)c12 [Vaccarin] (10 µM),0,0,0,0,0,0,0,0,0,0,0,0,0,0,0,0

# An excerpt of these results, tab-delimited.
Compound	number of time points (ROR2)	number of time points (RPS6KA1)	number of time points (SPHK1)	number of time points (SRC)	number of time points (STK24)	number of time points (STK38)	number of time points (SYK)	number of time points (TEC)	number of time points (TYK2)	number of time points (ULK3)	number of time points (YES1)	number of time points (ZAK)	number of time points (ZAP70)	number of time points (CDK4)	number of time points (CDK7)	number of time points (CDK9)
CS[C@@]1(C(=O)Nc2ccc3[nH]nc(-c4ccc(OC(C)C)nc4)c3c2)CCN(CC(=O)N2CC=C(c3ccc(-c4ncn(C)n4)cc3)CC2)C1 (2.5 µM)	0	0	0	0	0	0	0	0	0	0	0	0	0	0	0	0
Cc1nc2c(NCc3cccc(S(C)(=O)=O)c3)nccn2c1-c1ccc(O)c(F)c1 (10 µM)	0	0	0	0	0	0	0	0	0	0	0	0	0	0	0	0
